# Melanoma cell counts after drug treatment

Values as published with doi:10.1371/journal.pone.0140310, rounded.

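Human melanoma cell lines in 1,536-well plates were treated with two drugs together for 72 h, then fixed, stained and imaged. Values are the number of DAPI-stained nuclei as a percentage of the DMSO control: 100 is no effect, lower means fewer cells. Every drug was used at one fixed concentration, the lower of two screened (a fifth of the higher). These are primary screening values without error estimates.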
Only some of the drugs and lines screened are listed, without regard to their results.
A dash means that no value is listed here.

Drug key:
CP-690550: C[C@@H]1CCN(C(=O)CC#N)C[C@@H]1N(C)c1ncnc2[nH]ccc12 at 1 µM
MK-1775: C=CCn1c(=O)c2cnc(Nc3ccc(N4CCN(C)CC4)cc3)nc2n1-c1cccc(C(C)(C)O)n1 at 0.02 µM
GSK650394: O=C(O)c1ccc(-c2c[nH]c3ncc(-c4ccccc4)cc23)cc1C1CCCC1 at 0.16 µM
SU6656: CN(C)S(=O)(=O)c1ccc2c(c1)/C(=C/c1cc3c([nH]1)CCCC3)C(=O)N2 at 0.4 µM
lestaurtinib: C[C@]12O[C@H](C[C@]1(O)CO)n1c3ccccc3c3c4c(c5c6ccccc6n2c5c31)CNC4=O at 0.004 µM
tanespimycin: C=CCNC1=C2C[C@@H](C)C[C@H](OC)[C@H](O)[C@@H](C)/C=C(\C)[C@H](OC(N)=O)[C@@H](OC)/C=C\C=C(/C)C(=O)NC(=CC1=O)C2=O at 0.002 µM
indole-3-carbinol: OCc1c[nH]c2ccccc12 at 0.8 µM
cediranib: COc1cc2c(Oc3ccc4[nH]c(C)cc4c3F)ncnc2cc1OCCCN1CCCC1 at 0.4 µM

Drugs	A2058	C32	A101D	COLO 792	A375
CP-690550 + lestaurtinib	105	113	110	-	110
tanespimycin + lestaurtinib	104	96.5	88.0	-	92.8
MK-1775 + cediranib	84.5	102	72.2	-	51.6
tanespimycin + MK-1775	90.8	48.4	68.4	-	60.4
SU6656 + lestaurtinib	92.5	86.5	74.9	-	106
SU6656 + MK-1775	96.2	93.9	68.1	-	74.7
GSK650394 + indole-3-carbinol	89.8	94.9	91.3	-	87.2
indole-3-carbinol + tanespimycin	107	64.1	98.7	88.8	99.5
CP-690550 + indole-3-carbinol	81.6	101	103	-	82.9
GSK650394 + tanespimycin	90.5	87.4	91.5	-	81.9
lestaurtinib + indole-3-carbinol	98.2	103	104	-	96.2
tanespimycin + SU6656	95.7	33.9	73.6	-	113
CP-690550 + MK-1775	97.8	103	88.8	-	74.0
indole-3-carbinol + MK-1775	97.9	96.4	71.6	-	55.1
CP-690550 + SU6656	93.0	87.6	83.2	-	112
GSK650394 + MK-1775	92.9	90.6	83.4	-	71.0
cediranib + tanespimycin	114	98.5	96.1	-	99.0
indole-3-carbinol + SU6656	91.2	97.0	83.9	-	85.8
tanespimycin + CP-690550	97.5	59.3	87.8	-	104
CP-690550 + GSK650394	101	85.2	94.8	-	108
cediranib + SU6656	103	101	87.8	-	138
CP-690550 + cediranib	94.2	98.8	95.3	-	82.0
GSK650394 + lestaurtinib	95.6	98.3	88.2	-	90.9

Once more, the final 2:

| Drugs | A2058 | C32 | A101D | COLO 792 | A375 |
|---|---|---|---|---|---|
| CP-690550 + cediranib | 94.2 | 98.8 | 95.3 | - | 82.0 |
| GSK650394 + lestaurtinib | 95.6 | 98.3 | 88.2 | - | 90.9 |